According to patent US20210263033A1:
No constants are given. Whether binding was seen depends on the method and setting. Binding seen in cells or lysates may run through a third protein. A yes stands for co-enrichment or nearness to the bait. Other partners may have been found.

Legend:
[1] = biological target: T1, Heat shock protein (HSPD1), mitochondrial, Homo sapiens (CH60_HUMAN) (Homo sapiens) (UniProt P10809); experiment: pulldown with biotinylated phage from MDA-MB-231 cells, mass spectrometry identification
T1 sequence: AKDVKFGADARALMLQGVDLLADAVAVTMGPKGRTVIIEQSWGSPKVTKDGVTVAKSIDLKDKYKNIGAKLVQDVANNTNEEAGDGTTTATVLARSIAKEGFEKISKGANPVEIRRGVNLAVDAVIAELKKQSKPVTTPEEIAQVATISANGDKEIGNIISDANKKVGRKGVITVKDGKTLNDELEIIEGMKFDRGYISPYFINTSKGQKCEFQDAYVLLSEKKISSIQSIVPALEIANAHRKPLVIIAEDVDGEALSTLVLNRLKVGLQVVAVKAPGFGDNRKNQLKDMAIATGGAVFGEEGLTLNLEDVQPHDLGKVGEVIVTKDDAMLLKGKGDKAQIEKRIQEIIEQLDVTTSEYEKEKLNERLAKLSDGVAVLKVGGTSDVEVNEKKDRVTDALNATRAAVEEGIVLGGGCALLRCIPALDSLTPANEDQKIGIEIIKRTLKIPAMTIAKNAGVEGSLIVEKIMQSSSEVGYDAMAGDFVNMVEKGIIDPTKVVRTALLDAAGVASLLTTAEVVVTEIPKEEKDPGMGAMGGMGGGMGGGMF

[2] = biological target: T1, Heat shock protein (HSPD1), mitochondrial, Homo sapiens (CH60_HUMAN) (Homo sapiens); experiment: pulldown with biotinylated phage on streptavidin Dynal magnetic beads, SDS-PAGE with silver staining, mass spectrometry

B1: E11 phage (the phage bearing the peptide LGLRGSL (SEQ ID NO: 1)) (peptide, not shown: large carriers)
peptide: LGLRGSL
**Q.** What does the source list for B1?
**A.** binding [1]: binds; binding [2]: binds
